Data: PubChem BioAssay AID2685 (National Center for Advancing Translational Sciences (NCATS), 2010)
Out of some 320,000 compounds screened, about 2,100 (0.66%) were called active. The shares of active, inactive and inconclusive entries below differ from those in the screen. Calls come from the whole dose curve; as a rule, active = well fitted inhibition curve with a large enough effect in the signal ratio, with a control signal flat (not every such curve was filed as active); inconclusive = small, poorly fitted or top-dose-only effect, or effect the other way, or a change in a side signal; inactive = flat fitted curve, though single readings scatter; the % refers to the signal ratio. Potencies beside an inconclusive call are fits to weak or partial responses and may not hold up.

assay: qHTS Assay for Lipid Storage Modulators in Drosophila S3 Cells; conditions: BODIPY lipid droplet fluorescence, 18-24 h, cells fed with added oleic acid; lipid storage change, negative = inhibition: at 46.1 µM (top of the series) unless noted
Method in brief: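 Drosophila S3 cells got compounds at several concentrations plus oleic acid (400 uM solution). Laser-scanning cytometry with 488 nm excitation read lipid droplets at 500-530 nm and cells at 575-640 nm. Percent activity was relative to 20 uM Triacsin C.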
% is set by controls: 0 for no effect and ±100 for the full control effect; potency is the fitted concentration of half-maximal effect.

Row | SMILES | lipid storage change, negative = inhibition | Potency
1 | Cc1ccc(C)c(NC(=O)CSc2nnc(CSc3nc(C)cc(C)n3)n2Cc2ccco2)c1 | inconclusive: 27% | 
2 | CCC(c1nnnn1C1CCCC1)N1CCN(c2ccccc2)CC1 (stereo not drawn) | inconclusive: 20.2% | 
3 | CCN(CC)C(=O)c1[nH]cnc1C(=O)Nc1ccc(Cl)cc1 | inconclusive: 1.96% | 
4 | O=C(NC1CCN(S(=O)(=O)c2ccc(F)cc2)CC1)C1CCCCC1 |  | active: 5.17 µM
5 | COc1ccc(NC(=O)c2cc(-c3ccc(C)cc3)on2)cc1 |  | inconclusive: 0.517 µM [falling, full curve, poor fit]
6 | CC(C)(C)NC(=O)C(Cc1ccccc1)N1C(=O)c2ccccc2C1=O (stereo not drawn) |  | inconclusive: 4.11 µM [falling, full curve]
7 | O=c1cc(-c2cccc([N+](=O)[O-])c2)[nH][nH]1 |  | inconclusive: 0.58 µM [falling, single point]
8 | COc1ccc(C(=O)NC(C)CCCC(C)(C)O)cc1OC1CCN(C(C)=O)CC1 (stereo not drawn) |  | inconclusive: 29.1 µM [activator, single point]
9 | Cn1c(SCc2cc(=O)[nH]c3ccccc23)nnc1-c1ccc(Br)cc1 |  | inconclusive: 29.1 µM [rising, single point]
10 | CCCCSc1nnc(-c2c[nH]c3ccccc23)n1C | inconclusive: 74.5% | 
11 | COc1ccccc1OCc1ccc(C(=O)NC2CCCCC2)o1 |  | inconclusive: 5.8 µM [falling, partial curve]
12 | CCOC(=O)CN1CC23C=CC(O2)C(C(=O)NCc2cccs2)C3C1=O (stereo not drawn) |  | inconclusive: 7.31 µM [falling, partial curve, poor fit]
13 | CCOc1ccccc1N(CC(=O)NCCc1ccc(OC)c(OC)c1)S(=O)(=O)c1ccccc1 | inconclusive: -171% | 
14 | CC(C)(C)OC(=O)N1CCC[C@H]1C(=O)NCC1CCC(C(=O)O)CC1 (stereo partly drawn) | inconclusive: 1.42% | 
15 | COc1ccc2oc(C(=O)CCC(=O)O)c(N)c2c1 | inconclusive: -36.2% | 
16 | CC(=O)CCN1C(=O)NC2(CCCc3ccccc32)C1=O (stereo not drawn) | inconclusive: -43.6% [cytotoxic] [at 0.00295 µM] | 
17 | O=S(=O)(NNc1cccc(Cl)n1)c1ccc(Cl)cc1 | inconclusive: -58.3% | 
18 | Cc1cccc(NC(=O)COC(=O)CCCC2=NS(=O)(=O)c3ccccc3N2)c1 | inconclusive: -21% | 
19 | O=C(CSc1nc2ccccc2[nH]1)Nc1ccc(F)cc1 | inconclusive: -1.59% | 
20 | Clc1cccc(NCc2ccccc2)n1 | inconclusive: -0.472% | 
21 | CC(Sc1nncn1C)C(=O)Nc1ccccc1-c1ccccc1 (stereo not drawn) |  | inconclusive: 5.8 µM [activator, partial curve, poor fit]
22 | CCOc1ccc(OCC)c(NC(=O)CN2CCN(c3cccc(C)c3)CC2)c1 | inconclusive: 1.29% | 
23 | O=C(O)c1cc2nccc(-c3ccco3)n2n1 |  | inconclusive: 0.116 µM [falling, full curve, poor fit]
24 | OCC1CCCCN1C(=S)NCc1ccco1 (stereo not drawn) |  | inconclusive: 6.51 µM [falling, single point]
25 | Cc1cccn2c(=O)c3cc(C(=O)NC4CCCC4)sc3nc12 |  | inconclusive: 6.51 µM [falling, partial curve, poor fit]

Part of the list above, set out differently:
Row	SMILES	lipid storage change, negative = inhibition	Potency
13	CCOc1ccccc1N(CC(=O)NCCc1ccc(OC)c(OC)c1)S(=O)(=O)c1ccccc1	inconclusive: -171%	
20	Clc1cccc(NCc2ccccc2)n1	inconclusive: -0.472%	
22	CCOc1ccc(OCC)c(NC(=O)CN2CCN(c3cccc(C)c3)CC2)c1	inconclusive: 1.29%	

(continued)

Row | SMILES | lipid storage change, negative = inhibition | Potency
26 | Cc1cc(=O)[nH]c(N/N=C/c2ccccn2)n1 | inconclusive: 24.1% | 
27 | O=C(COC(=O)CNC(=O)c1ccc(Cl)cc1)Nc1ccc2c(c1)OCCO2 |  | inconclusive: 29.1 µM [falling, single point]
28 | C/C(=N\NC(=S)NCc1ccccc1)c1ccccc1 |  | inconclusive: 2.91 µM [rising, partial curve]
29 | CCOc1ccc(OCCC(=O)OCC(=O)NC2CCCC2)cc1 |  | inconclusive: 5.17 µM [falling, single point]
30 | COc1cccc(NC(=O)CCCCCn2nnc3ccccc3c2=O)c1 | inconclusive: 25.4% | 
31 | Cc1cc(C(=O)O)ccc1-n1c(C)cc(C=C2C(=O)c3ccccc3C2=O)c1C | inconclusive: -30.6% | 
32 | O=C(NCCN1CCN(c2ccccc2Cl)CC1)Nc1ccccc1 |  | inconclusive: 16.4 µM [activator, partial curve, poor fit]
33 | C=CCn1c(SCC(=O)Nc2cc(C)c(Cl)cc2OC)nnc1-c1ccco1 | inconclusive: 8.05% | 
34 | O=C(NCCc1cccnc1)c1cc(COc2ccc(F)cc2F)on1 |  | inconclusive: 3.66 µM [falling, single point]
35 | COc1ccc(CC(=O)NNS(=O)(=O)c2cccc([N+](=O)[O-])c2)cc1OC |  | inconclusive: 0.0046 µM [activator, full curve, poor fit]
36 | CCC(C)(C)NC(=O)C(c1ccc(C)cc1)N(CC1CCCO1)C(=O)c1csnn1 (stereo not drawn) | inconclusive: 190% | 
37 | COc1ccc(NC(=O)Nc2cccc(NC(C)=O)c2)c(OC)c1 | inconclusive: -30.8% | 
38 | CC(=O)Nc1ccc(NC(=O)Cc2ccc(S(=O)(=O)N3CCCCC3)s2)cc1 | inconclusive: 8.81% | 
39 | Cc1cc(Nc2ccccc2)c2c([N+](=O)[O-])ccc(C)c2n1 |  | inconclusive: 29.1 µM [falling, single point]
40 | C=CCN(CC=C)C(=O)COC(=O)c1ccc(Sc2ncn[nH]2)c([N+](=O)[O-])c1 | inconclusive: 31% | 
41 | CC(=O)Nc1ccc(C(=O)NN2C(=O)NC3(CCCCC3)C2=O)cc1 | inconclusive: -11.8% | 
42 | COC(=O)c1c(C#N)c(N)nc2c1CCC2 |  | inconclusive: 0.651 µM [falling, single point]
43 | O=C(N/N=C/c1cc(Cl)ccc1O)c1cccnc1 |  | inconclusive: 6.51 µM [falling, single point]
44 | Cc1ccc(C(=O)Nc2cc(C(C)C)c(O)c(C(C)C)c2)cc1 | inconclusive: -0.155% | 
45 | CCOC(=O)C1=C(O)C(=O)N(c2ccccc2)C1c1cccc([N+](=O)[O-])c1 (stereo not drawn) | inconclusive: -16.1% | 
46 | COc1ccc(/C=N/NC(=O)c2cccc(Br)c2)cc1CSc1ccccn1 | inactive: 11% | 
47 | COc1ccccc1NS(=O)(=O)c1cccc(C(=O)N2CCN(C(=O)c3ccco3)CC2)c1 | inconclusive: -57.2% | 
48 | O=C(Cn1c(-c2ccco2)nc2ccccc21)N1CCCCC1 | inconclusive: -20.4% | 
49 | O=CN1CCN(C(=S)NC(=O)c2ccc(Cl)cc2)CC1 |  | inconclusive: 23.1 µM [activator, single point]
50 | COc1ccccc1OCC(=O)Nc1cc2c(cc1C(=O)O)OCCCO2 |  | inconclusive: 23.1 µM [activator, single point]

Row | SMILES | lipid storage change, negative = inhibition | Potency
51 | CCCN1CCC(=O)N(CCOc2ccccc2)CC1 | inconclusive: 46.6% | 
52 | O=C(O)c1ccccc1S(=O)(=O)NCC(O)COc1ccc(Br)cc1 (stereo not drawn) |  | inconclusive: 0.0103 µM [falling, full curve, poor fit]
53 | CCCc1[nH]nc2c1C(/C(C)=C/c1ccccc1)C(C#N)=C(N)O2 (stereo not drawn) |  | inconclusive: 0.58 µM [activator, full curve, poor fit]
54 | COc1ccc(OC)c(CN2CCN(C(=O)[C@@H](NC(=O)c3cccc(C)c3)C(C)C)CC2)c1 |  | inconclusive: 0.164 µM [activator, full curve, poor fit]
55 | COc1ccc(CCC(=O)OCc2csc(CC(=O)Nc3ccccc3C)n2)cc1 |  | inconclusive: 0.259 µM [falling, full curve, poor fit]
56 | O=C(Cc1ccccc1F)Nc1cc(S(=O)(=O)N2CCCC2)ccc1Cl |  | inconclusive: 32.6 µM [falling, single point]
57 | CC1CN(c2nc3c(c(=O)n(Cc4ccc(Cl)cc4)c(=O)n3C)n2C)CC(C)O1 (stereo not drawn) | inconclusive: 33.1% | 
58 | CCOc1ccc(S(=O)(=O)Nc2cccc(C(=O)N3CCN(C(C)=O)CC3)c2)cc1 | inconclusive: 19.3% | 
59 | O=C(COc1ccccc1F)NC1CC1 |  | inconclusive: 29.1 µM [falling, single point]
60 | CCc1ccc(N2CC(C(=O)Nc3cccc(S(=O)(=O)N4CCCC4)c3)CC2=O)cc1 (stereo not drawn) | inconclusive: 26.7% | 
61 | O=C(O)CCc1ccc(-c2ccccc2)n1NC(=O)c1sc2ccccc2c1Cl |  | inconclusive: 0.0073 µM [activator, full curve, poor fit]
62 | COc1ccc(CNC(=O)c2ccc(S(=O)(=O)N3CCCC3)cc2)cc1OC | inconclusive: 16.7% | 
63 | Cc1cc2oc(C(=O)Nc3nonc3C)c(C)c2cc1C | inconclusive: 208% | 
64 | COc1ccc(N2CCN(C(=O)c3ccc(CNS(=O)(=O)c4cccc(OC)c4)cc3)CC2)cc1 |  | inconclusive: 29.1 µM [falling, single point]
65 | CCOC(=O)c1c(/N=C/N(C)C)sc2c1CCC2 |  | inconclusive: 29.1 µM [activator, single point]
66 | CCC1(C)CC2(CCCN(CCC(=O)c3ccccc3)C2)CCO1 (stereo not drawn) |  | inconclusive: 29.1 µM [falling, single point]
67 | CCN(CC)S(=O)(=O)c1ccc(OC(C)C)c(NC(=O)C2=COCCO2)c1 | inconclusive: -17.7% | 
68 | Cc1ccccc1-c1nc(CSc2nc3c(c(=O)[nH]2)CCC3)c(C)o1 | inactive: 29% | 
69 | CN(C)CCCN(C(=O)c1ccc([N+](=O)[O-])s1)c1nc2cc3c(cc2s1)OCCO3 | inconclusive: -54.6% | 
70 | Cc1ccccc1Nc1nn2c(=O)c3ccccc3nc2s1 | inconclusive: -19.5% | 
71 | O=C(CN1CCC(C(=O)c2ccc3c(c2)OCCO3)CC1)NC1CCCC1 | inconclusive: 22.8% | 
72 | O=C(NCc1ccc2c(c1)OCO2)c1ccc(NC(=O)C2CCCO2)cc1 (stereo not drawn) | inconclusive: -20.9% | 
73 | COc1cccc(Nc2nc(-c3ccccc3O)nc3ccccc23)c1 | inconclusive: 7.18% | 
